{"source": "PubChem BioAssay (NCATS)", "note": "This list was built around the results that the source calls inconclusive (neither active nor inactive); the mix of calls is not that of the screen. Where the call is inconclusive, the potency comes from a doubtful curve fit. The source made the active and inactive calls. Calls come from the whole dose curve; as a rule, active = well fitted cell-killing curve with a large enough effect; inconclusive = small, poorly fitted or top-dose-only effect, or effect the other way; inactive = no such curve, though single readings can be large or run the other way. Where a SMILES comes first, the peptide text is derived from it. [ ]: non-standard residue; d: D form. The star is where a group is joined. Sta = CC(C)C[C@H](N)[C@@H](O)CC(=O)O; Isovaleryl = CC(C)CC(=O)*", "data": [{"test": "Quantitative High-Throughput drug screen in 47 multiple myeloma cell lines against the NCATS MIPE library collection: KMS27_JCRB cell viability assay (AID 1918970); note: nearly all actives have a fitted effect of over 30% in size; note: potency is the fitted concentration of half-maximal effect", "settings": "KMS27 myeloma cells, CellTiter-Glo ATP viability, 48 h; viability (% of DMSO): at 45.8 µM (top of the series)", "excerpt": "PI: Beverly A. Mock Ph.D.\nLaboratory of Cancer Biology and Genetics,\nCenter for Cancer Research, National Cancer Institute,\nNational Institute of Health, Bethesda, Maryland\nDrug resistance and disease progression are common in multiple myeloma (MM) patients, underscoring the need for new therapeutic combinations. […] We hypothesized that effective combinations would reduce MYC expression and enhance p16 activity. […] These preclinical data identify potentially useful drug combinations for evaluation in drug-resistant MM and reveal potential mechanisms of combined drug sensitivity.\nDescribed herein is the primary MIPE qHTS used to cherrypick compounds. Validated compounds were then further tested for potential synergistic activiy.\n[1] Peat TJ, Gaikwad SM, Dubois W, Gyabaah-Kessie N, Zhang S, Gorjifard S, Phyo Z, Andres M, Hughitt VK, Simpson RM, Miller MA, Girvin AT, Taylor A, Williams D, D'Antonio N, Zhang Y, Rajagopalan A, Flietner E, Wilson K, Zhang X, Shinn P, Klumpp-Thomas C, McKnight C, Itkin Z, Chen L, Kazandijian D, Zhang J, Michalowski AM, Simmons JK, Keats J, Thomas CJ, Mock BA. Drug combinations identified by high-throughput screening promote cell cycle transition and upregulate Smad pathways in myeloma. […] Epub 2023 Jun 24. PMID: 37356470; PMCID: PMC10408729.\nSEQUENCE No. (e.g., 1, 2, 3, etc.); […] (e.g., Cells, Incubation, Reagent, etc.); VALUE and DESCRIPTION.\n1; Cells; 5 uL; white, solid bottom 1536-well Greiner assay plate.\n2; Compounds; 23 nL; Kalypsis pin tool (Wako USA) equipped with a 1536-well pin head to transfer to the assay plates.\n3; Incubation; 48 hours; 37C incubation.\n4; Reagent;5uL; CellTiter Glo (Promega).\n5; Detector; 425V; Luminescence; Viewlux PerkinElmer.\nNOTES (numbers refer to Sequence numbers above)\n1. The cell-based screening methods employed in this study were like those previously published. Briefly, the corresponding myeloma cell lines were screened in 1,536-well plates with 500 cells, 5-uL per well for inhibition of cell viability (assessed by measuring ATP levels with CellTiterGlo).\n2. NCATS MIPE 4.0 library of approved and investigational drugs were added using the Kalypsis pin tool. Wells treated with DMSO only for 100% viability and media only wells for 0% viability were used as controls.\n3. The assay plates were covered and incubated for 48 hours in a 37C, 5% CO2 incubator with controlled humidity.\n4. After 48 hours, CellTilter-GloTM luminescent substrate mix (Promega) reagent was added to the assay plate and plates we incubated for 5 min at room temperature.\n5. Signal was measured as median relative luminescence units on a ViewLux (PerkinElmer) multiplate reader.\n[1] Heske CM, Davis MI, Baumgart JT, Wilson K, Gormally MV, Chen L, Zhang X, Ceribelli M, Duveau DY, Guha R, Ferrer M, Arnaldez FI, Ji J, Tran HL, Zhang Y, Mendoza A, Helman LJ, Thomas CJ. Matrix Screen Identifies Synergistic Combination of PARP Inhibitors and Nicotinamide Phosphoribosyltransferase (NAMPT) Inhibitors in Ewing Sarcoma. Clin Cancer Res. 2017 Dec 1;23(23):7301-7311. doi: 10.1158/1078-0432.CCR-17-1121. Epub 2017 Sep 12. PMID: 28899971; PMCID: PMC6636827.", "values": [{"smiles": "Cc1ccc(Nc2cc(-c3cccc(N4C(=O)c5ccccc5C4=O)c3)ncn2)cc1NS(C)(=O)=O", "Potency": "inconclusive: 29.6 µM [cytotoxic, single point]"}, {"smiles": "NCCCCCC(=O)O", "Potency": "inconclusive: 5.9 µM [cytotoxic, partial curve, poor fit]"}, {"smiles": "CC(=O)OC1C(C)OC(Oc2c(-c3ccc(O)cc3)oc3cc(O)cc(O)c3c2=O)C(O)C1OC(C)=O", "note": "(stereo not given)", "Potency": "inconclusive: 29.6 µM [cytotoxic, partial curve, poor fit]"}, {"smiles": "O=c1[nH]c(=O)n([C@H]2C[C@@H](O)[C@@H](CO)O2)cc1C=CBr", "Potency": "inactive"}, {"smiles": "c1ccc2c(-c3cnn4cc(-c5ccc(N6CCNCC6)cc5)cnc34)ccnc2c1", "Potency": "inconclusive: 1.05 µM [cytotoxic, full curve, poor fit]"}, {"smiles": "CCCCC[C@H](O)C=C[C@H]1[C@H](O)CC(=O)[C@H]1CC=CCCCC(=O)O", "Potency": "inactive"}, {"smiles": "Cc1ccc2c(c1)C(=O)[C@]1(O)CCN(c3ccccc3)C1=N2", "Potency": "inconclusive: 0.0469 µM [cytotoxic, full curve, poor fit]"}, {"smiles": "CN(C)Cc1cccc(N=C(c2ccccc2)c2c(O)[nH]c3cc(C(=O)N(C)C)ccc23)c1", "Potency": "inconclusive: 13.2 µM [cytotoxic, partial curve, poor fit]"}, {"smiles": "CCN(CCO)CCCC(C)Nc1ccnc2cc(Cl)ccc12", "note": "(stereo not given)", "Potency": "inconclusive: 18.7 µM [cytotoxic, partial curve, poor fit]"}, {"smiles": "O=C(Nc1cccc(Br)c1)c1cccc(S(=O)(=O)N2CCCCCC2)c1", "Potency": "inconclusive: 6.62 µM [cytotoxic, partial curve, poor fit]"}, {"smiles": "CC1(C)SCCN(S(=O)(=O)c2ccc(OCC#CCO)cc2)[C@@H]1C(=O)NO", "Potency": "inactive"}, {"smiles": "N[C@H]1CN(c2c(F)cc3c(=O)c(C(=O)O)cn(C4C[C@@H]4F)c3c2Cl)CC12CC2", "note": "(stereo not given in full)", "Potency": "inactive"}, {"smiles": "CC1(C)CCC[C@@]2(C)[C@@H]1CC[C@@]1(C)OC(=O)C[C@H]21", "Potency": "inconclusive: 23.5 µM [cytotoxic, partial curve, poor fit]"}, {"smiles": "N#CC(=Cc1ccc(O)c(O)c1)C(=O)NCc1ccccc1", "Potency": "active: 0.833 µM"}, {"smiles": "CCCCCCCCCCCC(CC1OC(=O)C1CCCCCC)OC(=O)C(CC(C)C)NC=O", "note": "(stereo not given)", "Potency": "inconclusive: 5.26 µM [cytotoxic, partial curve, poor fit]"}, {"smiles": "COc1ccc2c(Oc3ccc(NC(=O)c4c(C)n(CC(C)(C)O)n(-c5ccccc5)c4=O)nc3)ccnc2c1", "Potency": "inactive"}, {"smiles": "CC1(C)O[C@H]2C[C@@H]3[C@H]4CCC5=CC(=O)C=C[C@]5(C)[C@@]4(F)[C@@H](O)C[C@]3(C)[C@]2(C(=O)CO)O1", "Potency": "inconclusive: 37.2 µM [cytotoxic, single point]"}, {"smiles": "O=c1cc(-c2cccc3c2Sc2ccccc2S3)oc(N2CCOCC2)c1", "Potency": "inconclusive: 66.2 µM [cytotoxic, partial curve, poor fit]"}, {"smiles": "Cn1c2cc(S(C)=O)sc2c2cnn(Cc3cccc(N)c3)c(=O)c21", "note": "(stereo not given)", "Potency": "inconclusive: 4.69 µM [cytotoxic, partial curve, poor fit]"}, {"smiles": "CCC=CC[C@H]1C(=O)CC[C@@H]1CC(=O)OC", "Potency": "inactive"}, {"smiles": "Cc1ccc(-n2[nH]c(C)c(N=Nc3cccc(-c4cccc(C(=O)O)c4)c3O)c2=O)cc1C", "Potency": "inconclusive: 2.96 µM [cytotoxic, partial curve, poor fit]"}, {"smiles": "NC(=O)c1ncn([C@@H]2O[C@H](CO)[C@@H](O)[C@@H]2O)c1O", "Potency": "inconclusive: 0.001 µM"}, {"smiles": "COc1cc([C@@H]2c3cc4c(cc3[C@H](O)[C@H]3COC(=O)[C@H]23)OCO4)cc(OC)c1OC", "Potency": "inactive"}, {"smiles": "CN1CCC(=C2c3ccccc3CC(=O)c3sccc32)CC1", "Potency": "inconclusive: 20.9 µM [cytotoxic, single point]"}, {"smiles": "CC1(C)O[C@@H]2C[C@H]3[C@@H]4CCC5=CC(=O)C=C[C@]5(C)[C@@H]4[C@@H](O)C[C@]3(C)[C@]2(C(=O)CO)O1", "Potency": "inconclusive: 0.0059 µM [rising, full curve, poor fit]"}, {"smiles": "CC1COC2(CCN(c3nc(=O)c4cc(C(F)(F)F)cc([N+](=O)[O-])c4s3)CC2)O1", "note": "(stereo not given)", "Potency": "inconclusive: 7.43 µM [rising, single point]"}, {"smiles": "Nc1nc(-c2nn(Cc3ccccc3F)c3ncccc23)nc(N)c1N1CCOCC1", "viability (% of DMSO)": "inconclusive: 76% [cytotoxic]"}, {"smiles": "C[C@]12CC[C@H](O)CC1=CC[C@@H]1[C@H]2CC[C@]2(C)C(c3cccnc3)=CC[C@H]12", "Potency": "inactive"}, {"smiles": "NC(=O)c1ccc(I)c([N+](=O)[O-])c1", "Potency": "inconclusive: 23.5 µM [cytotoxic, partial curve]"}, {"smiles": "Cc1nc2c([nH]1)CCN(C(=O)c1ccc(NC(=O)c3ccccc3-c3ccccc3)cc1)c1ccccc1-2", "Potency": "inactive"}, {"smiles": "CC(C)CC(=O)N[C@H](C(=O)N[C@H](C(=O)N[C@@H](CC(C)C)[C@@H](O)CC(=O)N[C@@H](C)C(=O)N[C@@H](CC(C)C)[C@@H](O)CC(=O)O)C(C)C)C(C)C", "note": "(Isovaleryl-VV[Sta]A[Sta]-OH)", "Potency": "inactive"}, {"smiles": "NCCS(=O)(=O)O", "Potency": "inconclusive: 0.0021 µM [cytotoxic, full curve, poor fit]"}, {"smiles": "CC1(C)CCC(C)(C)c2cc(NC(=O)c3ccc(C(=O)O)cc3)ccc21", "Potency": "inconclusive: 16.6 µM [cytotoxic, partial curve, poor fit]"}, {"smiles": "Cc1onc(-c2ccccc2)c1C(=O)N[C@@H]1C(=O)N2[C@@H](C(=O)O)C(C)(C)S[C@@H]12", "Potency": "inconclusive: 1.32 µM [cytotoxic, partial curve, poor fit]"}, {"smiles": "Cc1cc(C(=O)N2CCN(c3cccc(Cl)c3)CC2)n(-c2ccccc2)n1", "Potency": "active: 0.148 µM"}, {"smiles": "COc1nccc(-c2c(-c3ccc(F)cc3)ncn2C2CCNCC2)n1", "Potency": "inconclusive: 0.332 µM [rising, full curve, poor fit]"}, {"smiles": "OCCN(CCO)c1nc(N2CCCCC2)c2nc(N(CCO)CCO)nc(N3CCCCC3)c2n1", "Potency": "active: 20.9 µM"}, {"smiles": "NC(=O)c1ncn([C@@H]2O[C@H](CO)[C@@H](O)[C@@H]2O)c1N", "Potency": "inactive"}, {"smiles": "CCCN[C@H]1CCc2nc(N)sc2C1", "Potency": "inconclusive: 9.35 µM [cytotoxic, partial curve, poor fit]"}, {"smiles": "NS(=O)(=O)c1cc2c(cc1Cl)NCNS2(=O)=O", "Potency": "inactive"}]}]}
